Data on 2 molecules can be found in US20230028050A1.

One test concerns the target non-target anti-CD19 CAR. Kind of test: cartridge-based flow cytometry (Accellix), fluorophore-conjugated clone 16 on primary T cells expressing the anti-CD19 CAR.
For a further test, the target named is GPRC5D-8. Kind of test: flow cytometry; Jurkat T cells expressing the control CAR, anti-ID conjugated to Alexa Fluor 647.

Results are given in words; binding and its absence hold for the method and conditions named.

B1: anti-idiotype antibody clone 16 (antibody, mouse IgG1, kappa, V domains shown)
VH: QVQLQQSGPELVKPGASVKISCKASGYTFTDFYINWVKQRPGQGLEWIGWIFPRSGSTYYNEKFKGKATLSVDKSSITAYMLLSSLTSEDSAVYFCARGDGYSGAMDYWGQGTSVTVSS
VL: DIQMTQTTSSLSASLGDRVTISCSASQGIRNYLNWYQQKPDGTVKLLIYYTSNLHSGVPSRFSGSGSGTDYSLTISNLEPEDIATYYCQQYNNLPRTFGGGTKLEIKR
Consider B1, for which the binding result in the test with non-target anti-CD19 CAR is “no binding (tested: less than or equal to 1% CAR frequency)”; in the test with GPRC5D-8, “no binding (tested: 2.5 µg/mL)”.

B2: anti-idiotype antibody clone 15 (antibody, mouse IgG1, kappa, V domains shown)
VH: QVQLQQSGAELVKPGASVKISCKASGYAFSSYWMNWVKQRPGKGLEWIGQIYPGNGETNNNGKFKGKATLTADISSSTAYMQLSSLTSEDSAVYFCARGGWYFDVWGTGTTVTVSS
VL: DIQMTQSPASLSASVGETVTITCRASENIYSYLAWYQQKQGKSPHLLVYNAYTLAEGVPSRFSGSGSDTQFSLKINSLQPEDFGNYYCQHHYGTPWTFGGGTKVEIKR
Turning to B2, the binding entry with GPRC5D-8 is given as “no binding (tested: 2.5 µg/mL)”.
